# Test results taken from paper PMC6366424.
# How the values were obtained:
# Experiment in all cases: enzyme inhibition
# [1] = biological target: bovine trypsin (Bos taurus (bovine)) (UniProt P00760); details: commercial protein, single-stranded DNA
# [2] = biological target: T1, cathepsin G (Homo sapiens (human)) (UniProt P08311); details: 50x molar excess aptamer, commercial protein, single-stranded DNA
# T1 sequence (looked up, limits assumed): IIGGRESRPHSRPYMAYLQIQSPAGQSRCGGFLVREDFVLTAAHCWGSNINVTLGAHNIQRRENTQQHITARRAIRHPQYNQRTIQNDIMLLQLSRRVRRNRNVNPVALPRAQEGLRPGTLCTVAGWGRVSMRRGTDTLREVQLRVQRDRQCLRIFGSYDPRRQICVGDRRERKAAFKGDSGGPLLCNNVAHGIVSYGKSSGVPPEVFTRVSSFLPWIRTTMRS
# [3] = biological target: T2, neutrophil elastase (Homo sapiens (human)) (UniProt P08246); details: 50x molar excess aptamer, commercial protein, single-stranded DNA
# T2 sequence (looked up, limits assumed): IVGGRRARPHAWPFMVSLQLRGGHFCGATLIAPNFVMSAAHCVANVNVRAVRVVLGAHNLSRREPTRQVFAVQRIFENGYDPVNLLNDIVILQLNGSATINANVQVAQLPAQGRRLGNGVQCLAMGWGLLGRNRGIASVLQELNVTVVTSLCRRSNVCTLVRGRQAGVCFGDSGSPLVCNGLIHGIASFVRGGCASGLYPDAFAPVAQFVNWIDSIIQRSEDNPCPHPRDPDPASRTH
# [4] = biological target: pancreatic elastase (Sus scrofa (porcine)) (UniProt P00772); details: 50x molar excess aptamer, commercial protein, single-stranded DNA
# [5] = test system: plasmin (Homo sapiens (human)); details: 50x molar excess aptamer, commercial protein, single-stranded DNA
# [6] = biological target: porcine trypsin (Sus scrofa (porcine)) (UniProt P00761); details: 50x molar excess aptamer, commercial protein, single-stranded DNA
# [7] = test system: thrombin (Homo sapiens (human)); details: 50x molar excess aptamer, commercial protein, single-stranded DNA
# [8] = BAPNA, label: 5'-biotin in binding assays
# [9] = inhibition unaffected, letters put together from the description
# [10] = label: 5'-biotin in binding assays
sequence,measurement,setting,value
CATGCTTCCCCAGGGAGATGGGTGTGAGGTTAGGAAATCTGTGTTGAACACTGCTTTCAGGGGGCTTGGGAGGAACATGCGTCGCAAAC [T22],binding result,[1]; [8],binds
CAGGGAGATGGGTGTGAGGTTAGTTTGCGGGAACTAGAATTCCTGGCAAAGGGGGGCCTGGAGGAACATGCGTCGCAAAC [T24 delta a],binding result,[1]; [9],binds
CATGCTTCCCCAGGGAGATGGGTGTGGGGTTAGGTCACTTTATGGTTGGTTCCATTGTGTCAGGGAGCCGGGAGGAACATGCGTCGCAAAC [T21],binding result,[1]; [8],binds
CATGCTTCCCCAGGGAGATGGGTGTGAGGTTAGTTTGCGGGAACTAGAATTCCTGGCAAAGGGGGGCCTGGAGGAACATGCGTCGCAAAC [T24],binding result,[2]; [10],no binding
same,binding result,[3]; [10],no binding
same,binding result,[4]; [10],no binding
same,binding result,[5]; [10],no binding
same,binding result,[6]; [10],no binding
same,binding result,[7]; [10],no binding
CATGCTTCCCCAGGGAGATGGGTGTGAGGTTAGTTTGCGGTCCTGGCAAAGGGGGGCCTGGAGGAACATG [T59],binding result,[2],no binding
same,binding result,[3],no binding
same,binding result,[4],no binding
same,binding result,[5],no binding
same,binding result,[6],no binding
same,binding result,[7],no binding
CATGCTTCCCCAGGGAGATGGGTGTGAGGTTAGTTTGCGGGAACTAGAATTCCTGGCAAAGGGGGGCCTGGAGGAACATG [T24 delta i],binding result,[1]; [9],binds
CATGCTTCCCCAGGGAGATGACGCACATGTGGTTTTTAGACGGGCGTCCTGTGATGGGAGCGGGGTTAGGGAGGAACATGCGTCGCAAAC [T3],binding result,[1]; [8],binds

# For some assays here: A negative result means that nothing was seen under these conditions. For some assays here: Where a protein sequence is shown, tags need not be part of it.
